Results taken from US20170355757A1.
Results are given in words; binding and its absence hold for the method and conditions named. Some results given as binding are weak or reduced against the parent protein; the word gives no strength.

Protein sequences, listed by entry. Tags and fused reporters are not part of them. Lines headed by an entry give the natural chain unless they say otherwise; changes in a name come on top.
UniProt P01031: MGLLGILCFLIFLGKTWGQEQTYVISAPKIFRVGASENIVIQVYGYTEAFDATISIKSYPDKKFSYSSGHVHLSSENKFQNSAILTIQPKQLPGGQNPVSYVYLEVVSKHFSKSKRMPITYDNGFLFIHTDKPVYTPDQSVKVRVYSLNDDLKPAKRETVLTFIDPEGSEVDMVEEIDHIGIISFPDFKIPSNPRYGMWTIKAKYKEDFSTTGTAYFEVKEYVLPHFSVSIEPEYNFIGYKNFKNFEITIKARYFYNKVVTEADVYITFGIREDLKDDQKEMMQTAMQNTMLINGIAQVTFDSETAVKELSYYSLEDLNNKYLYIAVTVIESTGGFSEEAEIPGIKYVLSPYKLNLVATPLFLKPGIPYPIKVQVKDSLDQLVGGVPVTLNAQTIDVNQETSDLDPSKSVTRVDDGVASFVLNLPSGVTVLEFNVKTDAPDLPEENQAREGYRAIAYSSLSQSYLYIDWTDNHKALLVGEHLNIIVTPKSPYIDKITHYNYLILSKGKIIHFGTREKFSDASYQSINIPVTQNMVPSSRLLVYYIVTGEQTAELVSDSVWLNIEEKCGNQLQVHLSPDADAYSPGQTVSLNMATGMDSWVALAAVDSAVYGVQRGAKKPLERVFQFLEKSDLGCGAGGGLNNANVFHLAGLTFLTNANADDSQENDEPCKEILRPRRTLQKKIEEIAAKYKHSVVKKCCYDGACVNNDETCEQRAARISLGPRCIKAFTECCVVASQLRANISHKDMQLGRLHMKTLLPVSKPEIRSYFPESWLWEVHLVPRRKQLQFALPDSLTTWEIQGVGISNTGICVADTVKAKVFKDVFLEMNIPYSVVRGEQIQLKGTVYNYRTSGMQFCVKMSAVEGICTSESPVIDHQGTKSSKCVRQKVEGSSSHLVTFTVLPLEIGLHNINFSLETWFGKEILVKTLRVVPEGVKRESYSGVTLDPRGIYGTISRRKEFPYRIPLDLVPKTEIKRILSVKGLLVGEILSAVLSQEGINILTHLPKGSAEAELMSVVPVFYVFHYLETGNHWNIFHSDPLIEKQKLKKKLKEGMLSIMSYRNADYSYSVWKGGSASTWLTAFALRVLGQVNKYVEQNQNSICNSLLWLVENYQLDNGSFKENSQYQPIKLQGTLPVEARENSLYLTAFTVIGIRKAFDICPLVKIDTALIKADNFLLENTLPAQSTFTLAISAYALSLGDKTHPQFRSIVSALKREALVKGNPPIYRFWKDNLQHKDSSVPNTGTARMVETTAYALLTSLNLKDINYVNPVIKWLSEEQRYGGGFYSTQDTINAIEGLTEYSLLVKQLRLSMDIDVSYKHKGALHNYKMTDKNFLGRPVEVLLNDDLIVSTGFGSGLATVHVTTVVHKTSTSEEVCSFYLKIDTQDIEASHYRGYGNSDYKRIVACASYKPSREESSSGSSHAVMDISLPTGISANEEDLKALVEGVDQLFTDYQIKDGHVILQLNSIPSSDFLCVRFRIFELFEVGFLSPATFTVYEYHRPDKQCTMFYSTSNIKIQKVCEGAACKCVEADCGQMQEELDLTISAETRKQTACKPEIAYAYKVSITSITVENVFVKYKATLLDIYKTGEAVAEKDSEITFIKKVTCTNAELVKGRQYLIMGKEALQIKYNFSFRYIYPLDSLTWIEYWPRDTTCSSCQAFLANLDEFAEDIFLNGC

Experiments:
monkey C5-mmh (monkey) = assay: SPR (Biacore T200), antibody captured on anti-human Fc; 25 C and 37 C
human C5 (human) = human C5 (human) (UniProt P01031); assay: as above

binding (monkey C5-mmh (monkey)) | binding (human C5 (human)) | Binder
binds | binds | H4H11686N (antibody, V domains shown) VH: QVQLVESGGGLVKPGGSLRLSCAASGFTFSDYYMSWIRQAPGKGLEWVSYISSSGNTIKYADSMKGRFTISRDNAKKSLFVEMNSLRAEDTAVYYCARYKSSSDYFDHWGQGTLVTVSS VL: EIVLTQSPATLSLSPGERATLSCRASQSVRSYLAWYQQKPGQAPRLLIYDASNRATAIPARFSGSGSGTDFTLTISSLEPEDLAVYYCQQSGNWPLTFGGGTKVEIK
binds | binds | H4H12166P7 (antibody, human IgG4, V domains shown) VH: QVQLQESGPGLVKPSETLSLTCTVSGDSVSSSYWTWIRQPPGKGLEWIGYIYYSGSSNYNPSLKSRATISVDTSKNQFSLKLSSVTAADTAVYYCAREHNVDTTMIFDYWGQGTLVTVSS VL: AIQMTQSPSSLSASVGDRVTITCRASQGIRNDLGWYQQKPGKAPKLLIYAASSLQSGVPSRFAGRGSGTDFTLTISSLQPEDFATYYCLQDFNYPWHFGQGTKVEIK
binds | binds | H4H12166P8 (antibody, human IgG4, V domains shown) VH: QVQLQESGPGLVKPSETLSLTCTVSGDSVSSSYWTWIRQPPGKGLEWIGYIYYSGSSNYNPSLKSRATISVDTSKNQFSLKLSSVTAADTAVYYCAREGNVDHTMIFDYWGQGTLVTVSS VL: AIQMTQSPSSLSASVGDRVTITCRASQGIRNDLGWYQQKPGKAPKLLIYAASSLQSGVPSRFAGRGSGTDFTLTISSLQPEDFATYYCHQDFNYPWTFGQGTKVEIK
binds | binds | H4H12166P10 (antibody, human IgG4, V domains shown) VH: QVQLQESGPGLVKPSETLSLTCTVSGDSVSSSYWTWIRQPPGKGLEWIGYIYYSGSSNYNPSLKSRATISVDTSKNQFSLKLSSVTAADTAVYYCAREGNVDTTMIHDYWGQGTLVTVSS VL: AIQMTQSPSSLSASVGDRVTITCRASQGIRNDLGWYQQKPGKAPKLLIYAASSLQSGVPSRFAGRGSGTDFTLTISSLQPEDFATYYCLQDFNYPWHFGQGTKVEIK
binds | binds | H4H12166P9 (antibody, human IgG4, V domains shown) VH: QVQLQESGPGLVKPSETLSLTCTVSGDSVSSSYWTWIRQPPGKGLEWIGYIYYSGSSNYNPSLKSRATISVDTSKNQFSLKLSSVTAADTAVYYCAREGNVDHTMIFDYWGQGTLVTVSS VL: AIQMTQSPSSLSASVGDRVTITCRASQGIRNDLGWYQQKPGKAPKLLIYAASSLQSGVPSRFAGRGSGTDFTLTISSLQPEDFATYYCLQDFNYPWHFGQGTKVEIK
binds | binds | H4H11683N (antibody, V domains shown) VH: QVQLVESGGGVVQPGRSLRLSCVASGFTFSSYGIHWVRQAPGKGLEWVAVIWDDGNNINYSDSVKGRFIISRDNSRKTVYLQMNSLRGEDTAVYYCARDAPIAPVPDYWGQGTLVTVSS VL: DIQMTQSPSTLSASVGDRVTITCRASQSISSWLAWYQQKPGKAPKLLIYKASSLDTGVPSRFSGSGSGTEFTLTISSLQPDDFATYYCQQYNTYSYTFGLGTKLEIK
binds | binds | H4H12159P (antibody, human IgG4, V domains shown) VH: QVQLVESGGGVVQPGRSLRLSCGASGFTFSTYGMHWVRQAPGKGLEWVAVIWDDGNNKYYADSVKGRFTISRDNSKNTLYLQMNSLRAEDTAVYYCARDSEVAPVGDYWGQGTLVTVSS VL: DIQMTQSPSTLSASVGDRVTIICRASQSINRWLAWYQQKPGKAPKLLIYKASSLESGVPSRFSGSGSGTEFTLTISSLQPDDFAAYYCQQYNDYSYTFGQGTKLEIK
– | binds | H4H12161P (antibody, human IgG4, V domains shown) VH: EVQLVESGGDLVQPGGSLRLSCAASGFTFSDHYMDWVRQAPGKGLDWIGRIRNKANAYNTEYAASVRGRFTISRDDSQNLLYLQMNSLKTDDTAVYYCVRVWNYAYFAMDVWGQGTTVTVSS VL: DIQMTQSPSSLSASVGDRVTITCRSSQNIGIFLNWYQQKPGEAPNLLISAASSLHSGVPSRFSGSGSGTDFTLTIGSLQPEDFATYYCQQTYNTIFTFGPGTKVDIK
binds | binds | H4H12163P (antibody, human IgG4, V domains shown) VH: EVQLVESGGDLVQPGGSLRLSCAASGFTFSSYAMNWVRQGPGKGLEWVSAISGRGDSTYYADSVKGRLTISRDNSKNTLYLQMNSLRAEDTAVYYCVKEGEQLVYWYFDLWGRGTLVTVSS VL: DIQMTQSPSSLSASVGDRVTITCRASQTISNFLHWYQQKPGKAPKLLIYAASSLQSGVPSRFSGSGSGTDFTLTISSLQPEDFSTYFCQQSYTTPLTFGGGTKVEIK
binds | binds | H4H12171P (antibody, human IgG4, V domains shown) VH: EVQLVESGGGVVRPGGSLRLSCAASGFTFDEYGMTWVRQVPGKGLEWVSGITWNGGFTDYTDSVKGRFTSSRDNAKNSLYLQMNSLRAEDTALYYCARDGYSSSWGAYDIWGQGTMVTVSS VL: DIQMTQSPSSLSASVGDRVTITCRASQSISTYLNWYQQKPGKAPKLLIYAASSLQSGVPLRFSGSGSGTDFTLTISSLQPEDFASYFCQQSYSTPYTFGQGTKLEIK
binds | binds | H4H12164P (antibody, human IgG4, V domains shown) VH: EVQLVESGGGLVRSGGSLRLSCAASGFTFNRYAMTWVRQAPGKGLEWVSAISGSGSSTYYTDSVKGRFTISRDNSKNSVDLQMHSLRVEDTAIYYCARGTTVTTGYGMDVWGQGTTVTVSS VL: DIQMTQSPSSLSASVGDRVTFTCQASQDITNSLNWYQQKPGRAPKLLIYDASYLKAGVPSRFSGSGSGTDFTFTISSLQPEDIATYYCQQYDDLPYTFGQGTKLEIK
binds | binds | H4H12169P (antibody, human IgG4, V domains shown) VH: EVQLVESGGGLAQPGGSLRLSCAASGFTFRSYAMSWVRQAPGKGPEWVSGIGGNGVTTYYADSVKGRFTISRDNSKNTLFLQMNSLRAEDTAVYYCVQGGLGGYFTGYWGQGTLVTVSS VL: DIQMTQSPSSLSASVGDRVTITCRASQSISTYLNWYQQNPGKAPKLLIFDASSLQSGVPSRFSGSGSGTDFTLTIRGLQPEDFATYYCQQSYSAPLTFGGGTKVEIK
– | binds | H4H12168P (antibody, human IgG4, V domains shown) VH: QVQLVESGGGVVQPGGSLRLSCAASGFTFGGHAMHWVRQAPGKGLEWLAVISSDGSNKQYADSVKGRFTISRDNPKNTLYLQMNSLRVGDTAIYYCAKEVAPRYYYYGLDVWGQGTTVTVSS VL: DIQMTQSPSSLSASVGDRVTITCRASQDISNFLAWYQQKPGKVPKLLIYTASTLQSGVPSRFSGSGSGTDFTLTVSSLQPEDVATYYCQKYAGALTFGPGTKVDIK
binds | binds | H4H12175P (antibody, human IgG4, V domains shown) VH: EVQLVESGGGVVQPGGSLRLSCAASGFTFNDYAMHWVRQAPGKGLEWVSLISGDGGNTYYADSVKGRLTISRDNSKNSLYLQMNSLRTEDTALYYCAKDKGWNFGYFDLWGRGTLVTVSS VL: DIQMTQSPSSLSTSVGDRVTITCRASQNIDTYLNWYQQKPGKAPKLLIYDASSLQSGVPSRFSGSGSGTDFTLTITSLQPEDFATYYCQQNDNILHPLTFGGGTKVEIK
binds | binds | H4H12167P (antibody, human IgG4, V domains shown) VH: QVQLVESGGGLVKPGGSLRLSCAASGFTFSDSYMSWIRQAPGKGLEWISYIGSSGNTFYYADSVKGRFTISRDNANNLLYLQMTSLRAEDTAVYYCAREEGDFWSAVDSWGQGTLVTVSS VL: DIQLTQSPSFLSASVGDRVTITCWASQGISSYLAWYQQKPGKAPKLLIHTASTLQSGVPSRFSGSGSGTEFTLTISNLQPEDFATYYCQQLNSYPFTFGPGTKVDIK
